The text below walks through data of publication PMC8994398.

The chains behind the UniProt entries cited, without tags or fusion partners.
UniProt P50851: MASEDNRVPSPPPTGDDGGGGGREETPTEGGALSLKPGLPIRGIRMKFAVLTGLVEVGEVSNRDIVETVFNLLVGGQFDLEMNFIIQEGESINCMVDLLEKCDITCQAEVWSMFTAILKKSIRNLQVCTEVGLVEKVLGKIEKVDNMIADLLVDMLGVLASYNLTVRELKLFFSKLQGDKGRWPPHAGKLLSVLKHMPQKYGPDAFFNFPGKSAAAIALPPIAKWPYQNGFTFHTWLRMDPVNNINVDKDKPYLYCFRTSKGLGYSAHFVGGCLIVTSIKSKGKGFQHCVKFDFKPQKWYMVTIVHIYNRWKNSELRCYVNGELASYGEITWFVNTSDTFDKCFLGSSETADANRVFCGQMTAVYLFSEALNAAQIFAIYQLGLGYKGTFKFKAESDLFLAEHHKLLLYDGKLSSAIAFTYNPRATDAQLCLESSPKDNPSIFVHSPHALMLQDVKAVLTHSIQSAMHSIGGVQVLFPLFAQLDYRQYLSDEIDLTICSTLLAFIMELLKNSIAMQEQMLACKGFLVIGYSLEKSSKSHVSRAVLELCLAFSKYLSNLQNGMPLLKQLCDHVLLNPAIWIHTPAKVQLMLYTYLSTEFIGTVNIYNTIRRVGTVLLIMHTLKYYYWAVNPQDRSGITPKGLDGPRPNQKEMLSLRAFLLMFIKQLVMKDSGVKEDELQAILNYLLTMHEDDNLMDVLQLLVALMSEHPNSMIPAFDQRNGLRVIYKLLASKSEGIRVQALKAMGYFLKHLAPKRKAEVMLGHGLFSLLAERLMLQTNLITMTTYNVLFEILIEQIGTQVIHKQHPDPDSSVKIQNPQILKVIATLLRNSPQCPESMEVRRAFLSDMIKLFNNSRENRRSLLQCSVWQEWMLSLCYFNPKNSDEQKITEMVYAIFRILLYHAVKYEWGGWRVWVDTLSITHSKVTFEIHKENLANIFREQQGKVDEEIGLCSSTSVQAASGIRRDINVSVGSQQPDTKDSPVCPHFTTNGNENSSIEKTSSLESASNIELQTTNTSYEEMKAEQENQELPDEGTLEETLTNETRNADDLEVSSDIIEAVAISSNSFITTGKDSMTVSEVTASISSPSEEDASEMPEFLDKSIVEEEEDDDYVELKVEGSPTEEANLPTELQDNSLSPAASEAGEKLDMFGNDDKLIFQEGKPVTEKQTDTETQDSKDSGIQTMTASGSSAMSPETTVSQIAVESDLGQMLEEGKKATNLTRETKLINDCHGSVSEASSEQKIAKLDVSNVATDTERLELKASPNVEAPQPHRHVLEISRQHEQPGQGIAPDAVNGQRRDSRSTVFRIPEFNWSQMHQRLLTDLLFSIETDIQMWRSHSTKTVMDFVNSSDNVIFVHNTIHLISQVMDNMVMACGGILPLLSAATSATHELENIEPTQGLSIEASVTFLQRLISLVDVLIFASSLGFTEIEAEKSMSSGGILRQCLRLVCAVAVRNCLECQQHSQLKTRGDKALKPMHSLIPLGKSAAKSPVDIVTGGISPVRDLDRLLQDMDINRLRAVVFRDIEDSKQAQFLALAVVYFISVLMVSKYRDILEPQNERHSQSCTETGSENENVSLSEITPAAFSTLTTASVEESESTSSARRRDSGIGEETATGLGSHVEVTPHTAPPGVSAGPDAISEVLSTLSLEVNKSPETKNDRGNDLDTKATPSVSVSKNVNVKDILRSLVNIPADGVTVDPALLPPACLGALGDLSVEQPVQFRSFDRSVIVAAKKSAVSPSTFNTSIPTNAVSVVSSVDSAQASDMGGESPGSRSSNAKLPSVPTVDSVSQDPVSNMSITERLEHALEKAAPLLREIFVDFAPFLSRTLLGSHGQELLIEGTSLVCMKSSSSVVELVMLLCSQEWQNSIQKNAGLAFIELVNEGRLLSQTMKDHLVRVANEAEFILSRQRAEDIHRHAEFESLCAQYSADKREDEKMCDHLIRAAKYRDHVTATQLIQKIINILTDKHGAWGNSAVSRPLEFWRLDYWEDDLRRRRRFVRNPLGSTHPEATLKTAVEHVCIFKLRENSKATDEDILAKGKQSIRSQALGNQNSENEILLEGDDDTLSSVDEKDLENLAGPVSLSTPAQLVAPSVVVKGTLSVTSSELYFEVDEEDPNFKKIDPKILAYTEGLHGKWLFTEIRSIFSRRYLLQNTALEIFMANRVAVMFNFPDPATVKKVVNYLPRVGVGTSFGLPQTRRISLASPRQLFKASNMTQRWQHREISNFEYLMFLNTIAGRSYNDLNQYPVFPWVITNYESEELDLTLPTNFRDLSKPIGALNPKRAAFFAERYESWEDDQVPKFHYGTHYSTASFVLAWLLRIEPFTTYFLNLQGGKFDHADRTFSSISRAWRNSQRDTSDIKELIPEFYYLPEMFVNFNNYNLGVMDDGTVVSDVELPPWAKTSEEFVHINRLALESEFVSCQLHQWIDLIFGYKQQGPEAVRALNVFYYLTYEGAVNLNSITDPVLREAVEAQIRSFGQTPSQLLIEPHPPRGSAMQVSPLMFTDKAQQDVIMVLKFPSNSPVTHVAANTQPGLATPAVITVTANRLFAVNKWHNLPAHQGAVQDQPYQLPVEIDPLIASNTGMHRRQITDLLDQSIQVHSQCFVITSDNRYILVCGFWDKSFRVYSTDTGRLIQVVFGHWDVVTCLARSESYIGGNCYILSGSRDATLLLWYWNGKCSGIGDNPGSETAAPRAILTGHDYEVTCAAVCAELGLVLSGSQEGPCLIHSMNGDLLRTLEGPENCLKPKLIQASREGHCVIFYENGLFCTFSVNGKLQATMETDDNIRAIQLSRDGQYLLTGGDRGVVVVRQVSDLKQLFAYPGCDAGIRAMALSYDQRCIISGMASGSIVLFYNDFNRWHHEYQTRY

The assay deals with T1, ATF1-T184D (activating transcription factor 1, Thr184Asp mutant) (UniProt P18846).
T1 sequence: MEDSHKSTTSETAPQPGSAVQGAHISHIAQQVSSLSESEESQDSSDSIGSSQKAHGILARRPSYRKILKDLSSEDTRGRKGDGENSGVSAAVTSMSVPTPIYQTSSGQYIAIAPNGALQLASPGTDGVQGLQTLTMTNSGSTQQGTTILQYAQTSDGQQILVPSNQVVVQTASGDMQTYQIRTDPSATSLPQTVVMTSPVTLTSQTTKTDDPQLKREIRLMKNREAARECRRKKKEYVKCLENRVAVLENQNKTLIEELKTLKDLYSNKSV
Kind of assay: affinity purification with mass spectrometry; lysate of transfected MGC803 cells incubated with ATF1 antibody overnight at 4 °C, Protein A/G magnetic beads 1 h at RT, eluate separated by SDS-PAGE, silver staining, mass spectrometry; ATF1-T184D compared with ATF1-WT.

Results are given in words; binding and its absence hold for the method and conditions named. In cells and extracts the contact can be indirect. A yes stands for co-enrichment or nearness to the bait. Other partners may have been found.

Turning to LRBA (from UniProt P50851 1-2863), the binding entry is “binds”.

B1: S100A8 (protein, UniProt P05109 1-93)
chain: MLTELEKALNSIIDVYHKYSLIKGNFHAVYRDDLKKLLETECPQYIRKKGADVWFKELDINTDGAVNFQEFLILVIKMGVAAHKKSHEESHKE
Take B1: the binding entry is on record as “binds”.
